Among the data in paper PMC7210770 are binding values, retold here.

Chains of the proteins cited; added tags and fusions are not shown.
UniProt Q38898: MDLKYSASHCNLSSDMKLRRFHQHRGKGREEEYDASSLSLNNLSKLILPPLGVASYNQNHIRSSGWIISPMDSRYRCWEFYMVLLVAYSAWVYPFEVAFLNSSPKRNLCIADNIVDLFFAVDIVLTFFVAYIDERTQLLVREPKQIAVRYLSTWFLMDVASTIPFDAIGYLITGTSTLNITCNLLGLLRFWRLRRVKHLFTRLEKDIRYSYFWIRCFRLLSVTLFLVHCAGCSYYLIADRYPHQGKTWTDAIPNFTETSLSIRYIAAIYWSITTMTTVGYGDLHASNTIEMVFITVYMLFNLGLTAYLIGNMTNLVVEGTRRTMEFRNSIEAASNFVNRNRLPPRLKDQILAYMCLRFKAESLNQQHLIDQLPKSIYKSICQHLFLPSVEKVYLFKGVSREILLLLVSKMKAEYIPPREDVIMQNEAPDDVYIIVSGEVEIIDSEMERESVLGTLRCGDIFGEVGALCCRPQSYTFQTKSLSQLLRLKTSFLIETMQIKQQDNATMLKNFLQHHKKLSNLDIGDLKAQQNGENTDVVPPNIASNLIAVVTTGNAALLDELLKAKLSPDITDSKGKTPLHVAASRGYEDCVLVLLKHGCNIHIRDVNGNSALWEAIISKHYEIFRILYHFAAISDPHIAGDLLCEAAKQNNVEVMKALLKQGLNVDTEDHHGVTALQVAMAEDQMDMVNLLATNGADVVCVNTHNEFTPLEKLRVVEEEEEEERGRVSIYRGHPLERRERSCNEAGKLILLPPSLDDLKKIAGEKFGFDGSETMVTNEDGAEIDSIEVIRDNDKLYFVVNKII

No constants are given. Whether binding was seen depends on the method and setting. In cells and extracts the contact can be indirect.

The assay has as its target AKT2 (K+ channel), BiFC construct (Arabidopsis) (UniProt Q38898). The experiment in a line: split reporter; BiFC with split YFP (pDH51-GW-YFPC / pDH51-GW-YFPN) co-transfected into Arabidopsis mesophyll protoplasts, 16 h at 25 °C in the dark, confocal microscopy; empty vectors as negative controls.

B1: CIPK25ΔC (kinase domain of CIPK25, lacking the C-terminal domain), BiFC construct in pDH51-GW-YFPC (domain or fragment, UniProt Q8W1D5 43-297)
chain: YEMGRLLGKGTFGKVYYGKEITTGESVAIKIINKDQVKREGMMEQIKREISIMRLVRHPNIVELKEVMATKTKIFFIMEYVKGGELFSKIVKGKLKEDSARKYFQQLISAVDFCHSRGVSHRDLKPENLLVDENGDLKVSDFGLSALPEQILQDGLLHTQCGTPAYVAPEVLRKKGYDGAKGDIWSCGIILYVLLAGFLPFQDENLMKMYRKIFKSEFEYPPWFSPESKRLISKLLVVDPNKRISIPAIMRTPWF
Regarding B1, the binding entry is given as “no binding”.
